The text below walks through data of patent publication US5322931 (dated 1994).

Where no end group is shown, it is not given here. [ ]: non-standard residue; d: D form. The star is where a group is joined. Boc = CC(C)(C)OC(=O)*

The nature of the series: general procedure: solution-phase peptide synthesis; dicyclohexylcarbodiimide / N-hydroxysuccinimide ester. As to conditions: tetratrifluoroacetate salt.

Turning to Boc-K(Boc)H[dW]A-OH, the step yield (late stage modification step) turned out to be 55%.

With Boc-K(Boc)H[dW]A-OMe, the step yield (coupling step) was determined as 104%.

With KH[dW]AW[dF]K-NH2, the “final HPLC purity” value (late stage modification step, 280 nm) is recorded as “greater than 95%” and the “final HPLC purity” value (late stage modification step, HPLC (total integrated intensity at 280 nm)) is listed as “approximately 90%”. Besides, where the note is “late stage modification step, after lyophilization”, the step yield was determined as 51%. The “final purity (method not given)” value (late stage modification step, proton NMR, organic components) is given as “greater than 80%”.
